Among the data in patent publication US20150359798A1, “PIPERAZINYL DERIVATIVE REDUCES HIGH-FAT DIET-INDUCED ACCUMULATION OF FAT IN THE LIVERS, […]” (priority 2011, published 2015) are food intake values, retold here.

The test system of the data set is mice fed with HFD. Description: HFD-fed mice, 8 weeks, gavage: serum/liver lipids, body weight, food intake. It is filed as in vivo. On the procedure: In the 8 week experiment, C57BL/6J male mice (21-22 g), after fasting, were fed a HFD as a model of hyperlipidemia for 8 weeks. During the 2 month experiments, mice fasted for one night before the experiment was changed from a standard diet (STD) to a HFD and then the mice were randomly divided into 5 groups, including 2 control and 3 treatment groups. Six mice were used in each group. […] Liver from the protection group supplemented with KMUP-1 HCl (1 mg/kg/day) were used to determine the HMG CoA reductase expression.
Within 2 months, the 3 day food intake average for each animal was measured. The weight gain and plasma lipid levels of each group were determined and compared to the non-treatment control group. Mouse blood was collected during the daytime by cardiac puncture followed by centrifugation at 90 g (Benchtop Centrifuge, U.S.A.) to separate the serum, and frozen at −80° C., for biochemical analysis using a Hitachi Clinical Analyzer 7070 (Hitachi High-Technologies Co. Tokyo, Japan). Agents used in the assays were Obtained from Merck & Co. (Kenilworth, N.J., U.S.A.). Triglyceride (TG), total cholesterol, HDL cholesterol and LDL cholesterol in mouse serum were measured by methods used in the clinic. To measure the hepatic TG, isolated liver were cut into small chips.

For the molecule `Cn1c(=O)c2c(ncn2CCN2CCN(c3ccccc3Cl)CC2)n(C)c1=O` [KMUP-1, 7-[2-[4-(2-chlorophenyl)piperazinyl]ethyl]-1,3-dimethyl xanthine], the food intake reads like this: (2.5 mg/kg) 2.3 ± 0.1 g/day; (5 mg/kg) 2.2 ± 0.1 g/day.
